The experiment relates to HEK293T (UBE3A T485A transfected, BAR Wnt reporter). The experiment in a line: Renilla luciferase signal (cell health) relative to plate median (fold (linear ratio)); higher = higher Renilla signal. The following applies: 24 h. Summed up: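 HEK293T cells were grown in DMEM with 10% FBS at 37°C and 5% CO2, at 4500 cells/well in white 384-well plates. They were transfected with a BAR firefly luciferase Wnt reporter, TK-Renilla and an expression plasmid using Fugene 6. Four hours later, robots dosed the chemicals at 0.01–100 uM for 24 h, followed by Dual-Glo luciferase readout. Wnt activity (firefly/Renilla ratio) and cell health (raw Renilla) were median-centred per plate, averaged over four biological replicates.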

Whole data set: some 1,100 compounds, median “Renilla luciferase signal (cell health) relative to plate median” near 0.97, cut for the highest 2% near 1.6. The list shows a part of the results, in another mix than the full data.

On to `Cc1occc(=O)c1O` [Maltol], for which the Renilla luciferase signal (concentration: 0.1 uM) was 0.895, the Renilla luciferase signal (concentration: 1 uM) is 0.982, the Renilla luciferase signal (concentration: 10 uM) turned out to be 0.967 and the Renilla luciferase signal (concentration: 100 uM) was found to be 1.11.
Regarding `O=C([O-])Cc1ccccc1Nc1c(Cl)cccc1Cl.[Na+]` [Diclofenac sodium], the Renilla luciferase signal came out at 0.856 (concentration: 0.1 uM), 0.96 (concentration: 1 uM), 1.04 (concentration: 10 uM) and 0.319 (concentration: 100 uM).
For `CC(C)CCCCCCCOC(=O)CCCCC(=O)OCCCCCCCC(C)C` [Diisodecyl hexanedioate] the same measures were 1.04, 1.15, 1.06 and 1.45.
Take `NCCO` [Ethanolamine]: the Renilla luciferase signal is, setting by setting: (concentration: 1 uM) 0.822; (concentration: 10 uM) 0.939; (concentration: 100 uM) 1.34; (concentration: .1 uM) 0.808.
As for `CC(C)CCCCCCOC(=O)c1ccc(C(=O)OCCCCCCC(C)C)c(C(=O)OCCCCCCC(C)C)c1` [Triisononyl trimellitate], the Renilla luciferase signal runs as follows: (concentration: 0.1 uM) 1.14; (concentration: 1 uM) 1.15; (concentration: 10 uM) 1.21; (concentration: 100 uM) 1.29.
For the compound `C[C@@H](Oc1ccc(CNC(=O)c2cccnc2Oc2ccc3c(c2)OCO3)c(F)c1)C(=O)O`, the Renilla luciferase signal (concentration: 0.1 uM) came to 0.965, the Renilla luciferase signal (concentration: 1 uM) amounted to 0.848, the Renilla luciferase signal (concentration: 10 uM) was 0.936 and the Renilla luciferase signal (concentration: 100 uM) amounted to 0.918.
The like results for `c1ccc2cc3ccccc3cc2c1` [Anthracene] were, in that order, 1.34, 1.26, 0.952 and 0.992.
Regarding `COC(=O)c1ccc(I)cc1S(=O)(=O)[N-]C(=O)Nc1nc(C)nc(OC)n1.[Na+]` [Iodosulfuron-methyl-sodium], the Renilla luciferase signal was determined as 1.16 (concentration: 0.01 uM); 1.38 (concentration: 0.1 uM); 1.19 (concentration: 1 uM); 1.05 (concentration: 10 uM); 1.46 (concentration: 100 uM).
For the compound `O=C1CCC(C2CCCCC2)CC1` [4-Cyclohexylcyclohexanone], the Renilla luciferase signal by setting is: (concentration: 0.1 uM) 0.847; (concentration: 1 uM) 0.903; (concentration: 10 uM) 0.905; (concentration: 100 uM) 1.09.
On to `N=C(N)c1ccc(OCCCCCOc2ccc(C(=N)N)cc2)cc1.O=S(=O)(O)CCO.O=S(=O)(O)CCO` [Pentamidine isethionate], for which the Renilla luciferase signal runs as follows: (concentration: 0.1 uM) 1.02; (concentration: 1 uM) 2.37; (concentration: 10 uM) 0.453; (concentration: 100 uM) 0.0508.
Take `CCO[Si](CCCNC(N)=O)(OCC)OCC` [1-[3-(Triethoxysilyl)propyl]urea]: the Renilla luciferase signal by setting is: (concentration: 0.1 uM) 1.15; (concentration: 1 uM) 1.08; (concentration: 10 uM) 1.12; (concentration: 100 uM) 1.4.
With `CCCCCCCCN(C)CCCCCCCC` [N-Methyldioctylamine], the Renilla luciferase signal runs as follows: (concentration: 0.1 uM) 1.08; (concentration: 1 uM) 1.13; (concentration: 10 uM) 1.27; (concentration: 100 uM) 1.53.
For the compound `Oc1ccc2c(c1)-c1ccccc1C2` [3-Hydroxyfluorene], the Renilla luciferase signal turned out to be 1.05 (concentration: 0.1 uM), 0.963 (concentration: 1 uM), 1.01 (concentration: 10 uM) and 0.327 (concentration: 100 uM).
Take `CCN(CC)C(=O)c1cc(S(=O)(=O)Cc2ccccc2)c(N2CCC(c3ccccc3)CC2)cc1N(CC)CCN(C)C.O=C(O)C(F)(F)F` [HMR1171 trifluoroacetate (1:1)]: the Renilla luciferase signal is, setting by setting: (concentration: 0.1 uM) 0.802; (concentration: 1 uM) 0.767; (concentration: 10 uM) 0.648; (concentration: 100 uM) 0.249.
On to `CCCCCCC(C)OC(=O)COc1nc(F)c(Cl)c(N)c1Cl` (stereo unspecified) [Fluroxypyr-meptyl], for which the Renilla luciferase signal (concentration: 100 uM) is 2.31.
With `C[C@@H]1C[C@H]2[C@@H]3CCC4=CC(=O)C=C[C@]4(C)[C@@]3(F)[C@@H](O)C[C@]2(C)[C@@]1(O)C(=O)COP(=O)([O-])[O-].[Na+].[Na+]` [Dexamethasone sodium phosphate], the Renilla luciferase signal amounted to 0.714 (concentration: 0.1 uM), 0.748 (concentration: 1 uM), 0.748 (concentration: 10 uM) and 0.77 (concentration: 100 uM).
`CCCCOC(=O)C(C)Oc1ccc(Oc2ccc(C(F)(F)F)cn2)cc1` (stereo unspecified) [Fluazifop-butyl]: the Renilla luciferase signal (concentration: 100 uM) is 1.81.
On to `c1cc(-c2ccncc2)ccn1` [4,4'-Bipyridine], for which the Renilla luciferase signal is, setting by setting: (concentration: 0.1 uM) 0.84; (concentration: 1 uM) 0.887; (concentration: 10 uM) 0.924; (concentration: 100 uM) 1.1.
On to `C/C=C/C=C/C(=O)O` [Sorbic acid], for which the Renilla luciferase signal by setting is: (concentration: 0.1 uM) 0.585; (concentration: 1 uM) 0.806; (concentration: 10 uM) 0.746; (concentration: 100 uM) 0.351.
In the case of `NC(CCCP(=O)(O)O)C(=O)O` (racemic), the Renilla luciferase signal is, setting by setting: (concentration: 0.01 uM) 0.767; (concentration: 0.1 uM) 0.901; (concentration: 1 uM) 1.22; (concentration: 10 uM) 1.06; (concentration: 100 uM) 2.45.
For `O=C(NS(=O)(=O)/C=C/c1cccs1)c1ccc(F)cc1Br`, the Renilla luciferase signal runs as follows: (concentration: 0.1 uM) 0.767; (concentration: 1 uM) 0.559; (concentration: 10 uM) 0.332; (concentration: 100 uM) 0.277.
Turning to `OB(O)O` [Boric acid], the Renilla luciferase signal amounted to 0.818 (concentration: 0.01 uM); 0.807 (concentration: 0.1 uM); 0.865 (concentration: 1 uM); 0.866 (concentration: 10 uM); 1.37 (concentration: 100 uM).
As to `CC(N)=O` [Acetamide], the Renilla luciferase signal (concentration: 0.1 uM) is 0.73, the Renilla luciferase signal (concentration: 1 uM) worked out at 0.725, the Renilla luciferase signal (concentration: 10 uM) was 0.745 and the Renilla luciferase signal (concentration: 100 uM) was 0.667.
As to `CCCCCCCCCCC` [Undecane], the Renilla luciferase signal by setting is: (concentration: 0.1 uM) 0.95; (concentration: 1 uM) 0.969; (concentration: 10 uM) 1.01; (concentration: 100 uM) 1.25.
For `CC1(C)C(=O)NC(=O)N1CO` [1-(Hydroxymethyl)-5,5-dimethylhydantoin], the Renilla luciferase signal was 0.8 (concentration: 0.1 uM), 0.834 (concentration: 1 uM), 0.691 (concentration: 10 uM) and 0.734 (concentration: 100 uM).
In the case of `CC(=O)OCC(COC(C)=O)OC(C)=O` [Triacetin], the Renilla luciferase signal worked out at 0.684 (concentration: 0.1 uM), 0.682 (concentration: 1 uM), 0.588 (concentration: 10 uM) and 0.954 (concentration: 100 uM).
The like results for `CN(C)CCCN(C)CCCN(C)C` [2,6,10-Trimethyl-2,6,10-triazaundecane] were, in that order, 0.932, 0.811, 0.918 and 0.932.
For `C=CCc1ccc(O)c(OC)c1` [Eugenol] the same measures were 1.14, 1.24, 1.32 and 1.44.
For `O=C(Nc1ccc(Cl)cc1)Nc1ccc(Cl)c(Cl)c1` [Triclocarban], the Renilla luciferase signal runs as follows: (concentration: 0.1 uM) 1; (concentration: 1 uM) 0.895; (concentration: 10 uM) 0.408; (concentration: 100 uM) 0.021.
For `c1ccc2ncccc2c1` [Quinoline] the same measures were 1.03, 1.01, 0.866 and 1.02.
For `O=C(CCCCCCC(=O)Nc1ccccc1)NO` [Vorinostat (SAHA)], the Renilla luciferase signal came to 0.795 (concentration: 0.01 uM); 0.696 (concentration: 0.1 uM); 0.751 (concentration: 1 uM); 0.189 (concentration: 10 uM); 0.0167 (concentration: 100 uM).
On to `Cc1occc1C(=O)Nc1ccc(C(=O)N2CCC(F)(F)/C(=C\C(=O)N3CCC(N4CCCCC4)CC3)c3ccccc32)cc1.Cc1occc1C(=O)Nc1ccc(C(=O)N2CCC(F)(F)/C(=C\C(=O)N3CCC(N4CCCCC4)CC3)c3ccccc32)cc1.O=C(O)/C=C/C(=O)O`, for which the Renilla luciferase signal turned out to be 1.05 (concentration: 0.1 uM), 1.08 (concentration: 1 uM), 0.939 (concentration: 10 uM) and 0.0352 (concentration: 100 uM).

Source of the values: the supplement of paper PMC9254222.
